Measured data: PubChem BioAssay AID1259315 (Drosophila RNAi Screening Center, 2017)
Assay: 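Fly genes whose loss alters cell survival under toxic zinc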 (primary screen). System: Drosophila S2R+ cells. Reagent: long dsRNA against Drosophila genes. Timing: 5 days (4 days knock-down, then 1 day with zinc). Treatment: zinc chloride added to 15 mM final for 1 day. Read-out: 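ATP luminescence reflecting cell viability after 4 days of knock-down then 1 day with 15 mM zinc chloride; mean z-score of two replicate plates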. Scale: mean ATP z-score: higher = more ATP, more cells surviving zinc. Rule for the call: 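Hit when the mean ATP z-score exceeds 1.5 or falls below -1.5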.
In all, the deposit lists 418 reagents; this is a random part of them. 17 of them (4.1%) were called active. 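z-scores average two replicate plates; all hits raised ATP and none lowered it.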 A number with no mark means an inactive call. Reagents against one gene are numbered here. Not given: the amount of reagent.

no.	predicted target	dsRNA no.	mean ATP z-score
1	gb	1	-0.127
2	gb	2	0.173
3	VhaAC39-1	1	0.409
4	VhaAC39-1	2	-0.124
5	VhaAC39-1	3	-0.141
6	Muc11A	1	-0.282
7	Mcad	1	-0.2
8	Mcad	2	-0.258
9	Pex10	1	-0.205
10	Pex10	2	-0.403
11	or	1	0.195
12	or	2	-0.285
13	or	3	-0.207
14	Pmvk	1	-0.311
15	Pmvk	2	-0.253
16	Vps35	1	-0.0348
17	Vps35	2	-0.395
18	Vps35	3	-0.424
19	Hexo1	1	-0.278
20	vsg	1	-0.174
21	mei-9	1	0.112
22	Xpac	1	-0.238
23	Xpac	2	-0.337
24	Xpac	3	-0.222
25	CG4586	1	-0.238
26	CG4586	2	0.909
27	Pex13	1	-0.404
28	Pex13	2	-0.475
29	Pex13	3	-0.29
30	Agps	1	-0.13
31	Agps	2	-0.356
32	Agps	3	-0.175
33	CtsF	1	-0.142
34	CtsF	2	0.192
35	CtsF	3	-0.227
36	Vha14-2	1	-0.0402
37	CG15117	1	-0.444
38	CG15117	2	-0.319
39	CG15117	3	-0.032
40	CG31928	1	-0.0901
41	Vps20	1	-0.408
42	Vps20	2	-0.246
43	Vps20	3	-0.244
44	CG7997	1	-0.0228
45	CG7997	2	-0.148

In a second layout: entries from further up
{"predicted target": "CG15117", "dsRNA no.": 2, "mean ATP z-score": -0.319}
{"predicted target": "CG15117", "dsRNA no.": 3, "mean ATP z-score": -0.032}
{"predicted target": "CG31928", "dsRNA no.": 1, "mean ATP z-score": -0.0901}
